According to article PMC10864336:
Results are given in words; binding and its absence hold for the method and conditions named. In cells and extracts the contact can be indirect. Some binding calls cover weakened binding; strength is not graded here. Where a sequence is shown, tags or fusion partners need not be part of it.

Biological target: T1, 3×FLAG-Tsc13 (WT) (S. cerevisiae) (UniProt Q99190)
T1 sequence: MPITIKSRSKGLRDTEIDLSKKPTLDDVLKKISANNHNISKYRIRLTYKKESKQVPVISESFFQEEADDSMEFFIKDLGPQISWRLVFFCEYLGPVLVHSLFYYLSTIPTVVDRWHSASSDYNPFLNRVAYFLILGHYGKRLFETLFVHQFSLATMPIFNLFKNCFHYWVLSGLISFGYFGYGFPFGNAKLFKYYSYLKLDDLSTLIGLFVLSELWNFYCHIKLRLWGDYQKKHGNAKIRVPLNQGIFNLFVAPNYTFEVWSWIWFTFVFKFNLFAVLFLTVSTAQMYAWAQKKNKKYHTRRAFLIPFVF
Experiment: co-IP; membrane fractions of yeast cells solubilized with 1% Triton X-100; immunoprecipitation with anti-FLAG M2 affinity gel at 4 °C overnight (50 mM Hepes/NaOH pH 7.5, 0.2 M sorbitol, 150 mM NaCl, 1 mM DTT); washed with buffer containing 0.1% Triton X-100; immunoblotting with anti-FLAG and …; band intensity of the immunoprecipitate relative to the input

B1: Elo2-6×HA (enzyme, UniProt P25358 1-347)
chain: MNSLVTQYAAPLFERYPQLHDYLPTLERPFFNISLWEHFDDVVTRVTNGRFVPSEFQFIAGELPLSTLPPVLYAITAYYVIIFGGRFLLSKSKPFKLNGLFQLHNLVLTSLSLTLLLLMVEQLVPIIVQHGLYFAICNIGAWTQPLVTLYYMNYIVKFIEFIDTFFLVLKHKKLTFLHTYHHGATALLCYTQLMGTTSISWVPISLNLGVHVVMYWYYFLAARGIRVWWKEWVTRFQIIQFVLDIGFIYFAVYQKAVHLYFPILPHCGDCVGSTTATFAGCAIISSYLVLFISFYINVYKRKGTKTSRVVKRAHGGVAAKVNEYVNVDLKNVPTPSPSPKPQHRRKR
- binding: binds
